Test results reported in patent publication US20160074473A1 (Kinemed, Inc., priority 2014, published 2016).

Test: peptide made by a vendor (Fmoc solid-phase peptide synthesis)
Details: whole synthesis

DWLKAFYDKVAEKLKEAFPDWAKAAYDKAAEKAKEAA
final HPLC purity: >95%

Plain letter strings leave the end groups untold.
